Test results: patent publication US20240373847A1, “HERBICIDAL MALONAMIDES” (BASF SE, priority 2021, published 2024)
Some entries share one result that the patent states for a list of compounds. At least one structure is not confirmed: it was looked up by name or label, or the drawing left a doubt.

How the values were obtained:
Assay type in all cases: in vivo
Avena fatua (AVEFA) = test: greenhouse test, post-emergence treatment; conditions: post-emergence method, scale from 0 to 100
[1] = test system: Amaranthus retroflexus (AMARE); test: greenhouse test, post-emergence treatment; conditions: post-emergence method, scale from 0 to 100
Description: (§1) The culture containers used were plastic flowerpots containing loamy sand with approximately 3.0% of humus as the substrate. The seeds of the test plants were sown separately for each species.
For the post-emergence treatment, the test plants were first grown to a height of 3 to 15 cm, depending on the plant habit, and only then treated with the active ingredients which had been suspended or emulsified in water. For this purpose, the test plants were either sown directly and grown in the same containers, or they were first grown separately as seedlings and transplanted into the test containers a few days prior to treatment.
(§2) Depending on the species, the test plants were kept at 10-25° C. or 20-35° C., respectively.
(§3) The test period extended over 2 to 4 weeks. During this time, the test plants were tended, and their response to the individual treatments was evaluated.
(§4) Evaluation was carried out using a scale from 0 to 100. 100 means no emergence of the test plants, or complete destruction of at least the aerial moieties, and 0 means no damage, or normal course of growth. A good herbicidal activity is given at values of 70 to <90 and a very good herbicidal activity is given at values of 90 to 100.
(§5) The test plants used in the greenhouse experiments were of the following species: […]

[2] = test system: Alopercurus myosuroides (ALOMY); test: greenhouse test, post-emergence treatment; conditions: post-emergence method, scale from 0 to 100
[3] = test system: Apera spica-venti (APESV); test: greenhouse test, pre-emergence treatment; conditions: pre-emergence method, scale from 0 to 100
Description: as §1
For the pre-emergence treatment, the active ingredients, which had been suspended or emulsified in water, were applied directly after sowing by means of finely distributing nozzles. The containers were irrigated gently to promote germination and growth and subsequently covered with transparent plastic hoods until the test plants had rooted.
This cover caused uniform germination of the test plants, unless this had been impaired by the active ingredients.
as §2, §3, §4, §5

[4] = test system: Abutilon theophrasti (ABUTH); test: greenhouse test, post-emergence treatment; conditions: post-emergence method, scale from 0 to 100

In the case of COC(=O)CC(C)NC(=O)C(C)C(=O)Nc1cc(Cl)cc(Cl)c1 (stereo not shown) [I.1], the “herbicidal activity against AVEFA” value (Avena fatua (AVEFA); 0.500 kg/ha) is reported as “good herbicidal activity (A good herbicidal activity is given at values of 70 to <90)” and the “herbicidal activity against AMARE” value ([1]; 0.500 kg/ha) is reported as “very good herbicidal activity (a very good herbicidal activity is given at values of 90 to 100)”.
In the case of CCC(C(=O)Nc1cc(Cl)cc(Cl)c1)C(=O)NC(C)CC(=O)OC (stereo not shown) [I.2], the “herbicidal activity against ALOMY” value ([2]; 0.500 kg/ha) is reported as “good herbicidal activity (A good herbicidal activity is given at values of 70 to <90)”, the “herbicidal activity against AVEFA” value (Avena fatua (AVEFA); 0.500 kg/ha) is reported as “good herbicidal activity (A good herbicidal activity is given at values of 70 to <90)” and the “herbicidal activity against AMARE” value ([1]; 0.500 kg/ha) is reported as “very good herbicidal activity (a very good herbicidal activity is given at values of 90 to 100)”.
With COC(=O)CC(C)NC(=O)C(C(=O)Nc1cc(Cl)cc(Cl)c1)C1CC1 (stereo not shown) [I.3] the “herbicidal activity against ALOMY” value ([2]; 0.500 kg/ha) was “good herbicidal activity (A good herbicidal activity is given at values of 70 to <90)” and the “herbicidal activity against AMARE” value ([1]; 0.500 kg/ha) was “very good herbicidal activity (a very good herbicidal activity is given at values of 90 to 100)”.
With CC(CC(=O)OCc1ccccc1)NC(=O)C(C)C(=O)Nc1cc(Cl)cc(Cl)c1 (stereo not shown) [I.20] the “herbicidal activity against APESV” value ([3]; 0.250 kg/ha) was “good herbicidal activity (A good herbicidal activity is given at values of 70 to <90)” and the “herbicidal activity against ALOMY” value ([2]; 0.250 kg/ha) was “good herbicidal activity (A good herbicidal activity is given at values of 70 to <90)”.
With CC(CC(=O)OCc1ccccc1)NC(=O)C(C)C(=O)Nc1cc(F)cc(F)c1 (stereo not shown) [I.21] the “herbicidal activity against APESV” value ([3]; 0.250 kg/ha) was “good herbicidal activity (A good herbicidal activity is given at values of 70 to <90)” and the “herbicidal activity against AMARE” value ([1]; 0.250 kg/ha) was “very good herbicidal activity (a very good herbicidal activity is given at values of 90 to 100)”.
In the case of CC(CC(=O)OCc1ccccc1)NC(=O)C(C)C(=O)Nc1cc(F)cc(Cl)c1 (stereo not shown) [I.41], the “herbicidal activity against ALOMY” value ([2]; 0.250 kg/ha) is reported as “good herbicidal activity (A good herbicidal activity is given at values of 70 to <90)” and the “herbicidal activity against AVEFA” value (Avena fatua (AVEFA); 0.250 kg/ha) is reported as “good herbicidal activity (A good herbicidal activity is given at values of 70 to <90)”.
With CC(CC(=O)OCc1ccccc1)NC(=O)C(C)C(=O)Nc1cccc(F)c1 (stereo not shown) [I.42] the “herbicidal activity against ALOMY” value ([2]; 0.125 kg/ha) was “good herbicidal activity (A good herbicidal activity is given at values of 70 to <90)”.
For COC(=O)CC(C)NC(=O)C(C)C(=O)Nc1cc(F)cc(Cl)c1 (stereo not shown) [I.43], the “herbicidal activity against ALOMY” value ([2]; 0.250 kg/ha) was “good herbicidal activity (A good herbicidal activity is given at values of 70 to <90)” and the “herbicidal activity against AVEFA” value (Avena fatua (AVEFA); 0.250 kg/ha) was “very good herbicidal activity (a very good herbicidal activity is given at values of 90 to 100)”.
COC(=O)CC(C)NC(=O)C(C)C(=O)Nc1ccc(Cl)cc1 (stereo not shown) [I.48] was tested, and the “herbicidal activity against AMARE” value ([1]; 0.250 kg/ha) was “good herbicidal activity (A good herbicidal activity is given at values of 70 to <90)”.
For COC(=O)CC(C)NC(=O)C(C)C(=O)Nc1cccc(Cl)c1 (stereo not shown) [I.50], the “herbicidal activity against ALOMY” value ([2]; 0.250 kg/ha) was “very good herbicidal activity (a very good herbicidal activity is given at values of 90 to 100)” and the “herbicidal activity against AVEFA” value (Avena fatua (AVEFA); 0.250 kg/ha) was “very good herbicidal activity (a very good herbicidal activity is given at values of 90 to 100)”.
COC(=O)CC(C)NC(=O)C(C)C(=O)Nc1cccc(F)c1 (stereo not shown) [I.56] was tested, and the “herbicidal activity against APESV” value ([3]; 0.250 kg/ha) was “good herbicidal activity (A good herbicidal activity is given at values of 70 to <90)”, the “herbicidal activity against ALOMY” value ([2]; 0.250 kg/ha) was “very good herbicidal activity (a very good herbicidal activity is given at values of 90 to 100)” and the “herbicidal activity against AVEFA” value (Avena fatua (AVEFA); 0.250 kg/ha) was “good herbicidal activity (A good herbicidal activity is given at values of 70 to <90)”.
COC(=O)CCC(C)NC(=O)C(C)C(=O)Nc1cc(C)cc(F)c1 (stereo not shown) [I.81] was tested, and the “herbicidal activity against APESV” value ([3]; 0.250 kg/ha) was “good herbicidal activity (A good herbicidal activity is given at values of 70 to <90)”, the “herbicidal activity against ABUTH” value ([4]; 0.250 kg/ha) was “very good herbicidal activity (a very good herbicidal activity is given at values of 90 to 100)” and the “herbicidal activity against ALOMY” value ([2]; 0.250 kg/ha) was “good herbicidal activity (A good herbicidal activity is given at values of 70 to <90)”. The “herbicidal activity against AVEFA” value (Avena fatua (AVEFA); 0.250 kg/ha) was “good herbicidal activity (A good herbicidal activity is given at values of 70 to <90)”.
For COC(=O)CCC(C)NC(=O)C(C)C(=O)Nc1ccc(Cl)c(Cl)c1 (stereo not shown) [I.84], the “herbicidal activity against AVEFA” value (Avena fatua (AVEFA); 0.250 kg/ha) was “good herbicidal activity (A good herbicidal activity is given at values of 70 to <90)”.
In the case of COC(=O)CCC(C)NC(=O)C(C)C(=O)Nc1cccc(C(F)(F)F)c1 (stereo not shown) [I.85], the “herbicidal activity against APESV” value ([3]; 0.125 kg/ha) is reported as “good herbicidal activity (A good herbicidal activity is given at values of 70 to <90)”, the “herbicidal activity against ABUTH” value ([4]; 0.125 kg/ha) is reported as “good herbicidal activity (A good herbicidal activity is given at values of 70 to <90)” and the “herbicidal activity against ALOMY” value ([2]; 0.125 kg/ha) is reported as “good herbicidal activity (A good herbicidal activity is given at values of 70 to <90)”. For the same molecule, the “herbicidal activity against AVEFA” value (Avena fatua (AVEFA); 0.125 kg/ha) was “good herbicidal activity (A good herbicidal activity is given at values of 70 to <90)”.
For COC(=O)CCC(C)NC(=O)C(C)C(=O)Nc1cc(F)cc(OC)c1 (stereo not shown) [I.86], the “herbicidal activity against AVEFA” value (Avena fatua (AVEFA); 0.250 kg/ha) was “good herbicidal activity (A good herbicidal activity is given at values of 70 to <90)”.
For CCC(C(=O)Nc1cc(F)cc(F)c1)C(=O)NC(C)CC(=O)OC (stereo not shown) [I.95], the “herbicidal activity against AVEFA” value (Avena fatua (AVEFA); 0.250 kg/ha) was “good herbicidal activity (A good herbicidal activity is given at values of 70 to <90)”.
In the case of CCC(C(=O)Nc1cccc(F)c1)C(=O)NC(C)CC(=O)OC (stereo not shown) [I.98], the “herbicidal activity against AVEFA” value (Avena fatua (AVEFA); 0.250 kg/ha) is reported as “good herbicidal activity (A good herbicidal activity is given at values of 70 to <90)”.
For CCC(C(=O)Nc1cc(C)cc(F)c1)C(=O)NC(C)CC(=O)OC (stereo not shown) [I.104], the “herbicidal activity against APESV” value ([3]; 0.250 kg/ha) was “good herbicidal activity (A good herbicidal activity is given at values of 70 to <90)”.
With CCC(C(=O)Nc1cccc(I)c1)C(=O)NC(C)CC(=O)OC (stereo not shown) [I.110] the “herbicidal activity against AVEFA” value (Avena fatua (AVEFA); 0.250 kg/ha) was “good herbicidal activity (A good herbicidal activity is given at values of 70 to <90)”.
CCc1cccc(NC(=O)C(CC)C(=O)NC(C)CCC(=O)OC)c1 (stereo not shown) [I.117] was tested, and the “herbicidal activity against AVEFA” value (Avena fatua (AVEFA); 0.125 kg/ha) was “good herbicidal activity (A good herbicidal activity is given at values of 70 to <90)”.
CCC(C(=O)Nc1cccc(F)c1)C(=O)NC(C)CCC(=O)OC (stereo not shown) [I.122] was tested, and the “herbicidal activity against ABUTH” value ([4]; 0.250 kg/ha) was “good herbicidal activity (A good herbicidal activity is given at values of 70 to <90)”, the “herbicidal activity against AVEFA” value (Avena fatua (AVEFA); 0.250 kg/ha) was “good herbicidal activity (A good herbicidal activity is given at values of 70 to <90)” and the “herbicidal activity against AMARE” value ([1]; 0.250 kg/ha) was “good herbicidal activity (A good herbicidal activity is given at values of 70 to <90)”.
With CCC(C(=O)Nc1cc(C)cc(F)c1)C(=O)NC(C)CCC(=O)OC (stereo not shown) [I.124] the “herbicidal activity against ABUTH” value ([4]; 0.250 kg/ha) was “good herbicidal activity (A good herbicidal activity is given at values of 70 to <90)”.
In the case of CCC(C(=O)Nc1cccc(Cl)c1)C(=O)NC(C)CC(=O)O (stereo not shown) [I.143], the “herbicidal activity against AVEFA” value (Avena fatua (AVEFA); 1.000 kg/ha) is reported as “good herbicidal activity (A good herbicidal activity is given at values of 70 to <90)”.
With CCC(C(=O)Nc1cccc(I)c1)C(=O)NC(C)CC(=O)O (stereo not shown) [I.147] the “herbicidal activity against ALOMY” value ([2]; 1.000 kg/ha) was “good herbicidal activity (A good herbicidal activity is given at values of 70 to <90)” and the “herbicidal activity against AVEFA” value (Avena fatua (AVEFA); 1.000 kg/ha) was “good herbicidal activity (A good herbicidal activity is given at values of 70 to <90)”.
With CCC(C(=O)Nc1cc(F)cc(Cl)c1)C(=O)NC(C)CC(=O)O (stereo not shown) [I.149] the “herbicidal activity against ALOMY” value ([2]; 1.000 kg/ha) was “very good herbicidal activity (a very good herbicidal activity is given at values of 90 to 100)” and the “herbicidal activity against AVEFA” value (Avena fatua (AVEFA); 1.000 kg/ha) was “good herbicidal activity (A good herbicidal activity is given at values of 70 to <90)”.
